PubChem BioAssay AID1259308, NCATS, 2017
Purpose: 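Candidate targets for better recombinant protein yield in mammalian cells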 (primary screen). Cells: human HEK293 embryonic kidney cells stably expressing firefly luciferase (HEK-CMV-Luc2-Hygro). Reagent: single siRNA against human genes, 0.8 pmol siRNA per well. Duration: 72 h. Measurement: 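Luciferase light (ONE-Glo) measured on one replicate plate set and viability (CellTiter-Glo) on the other, scaled to a negative control siRNA, with robust z-scores and luciferase per cell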. Direction: total luciferase, z-score and total luciferase, % of control: higher = more reporter protein produced; luciferase per cell, z-score: higher = more reporter output per viable cell; viable cells, % of control: higher = more viable cells. Hit rule: 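Active when the median/MAD z-score for overall luciferase is greater than 3; a gene was taken forward for validation with new siRNAs if at least two of its three siRNAs passed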. Calls: active = raised luciferase; inactive = no rise.
Here is an unselected part of about 59,000 reagents. Of all reagents, about 1,510 (2.6%) got an active call. 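Calls use total luciferase alone and ignore viability, so some active siRNAs may act by altering cell number.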 No sequences are given here.

| gene symbol | PubChem SID | total luciferase, z-score | total luciferase, % of control | luciferase per cell, z-score | viable cells, % of control | outcome |
| --- | --- | --- | --- | --- | --- | --- |
| GP9 (glycoprotein IX platelet) | SID160723793 | 1.48 | 111 | 1.51 | 83.6 | inactive |
| GP9 (glycoprotein IX platelet) | SID160730992 | -0.406 | 73.8 | 0.741 | 67.9 | inactive |
| GP9 (glycoprotein IX platelet) | SID160772743 | 2.14 | 125 | 1.45 | 94.9 | inactive |
| SLC29A3 | SID160743512 | 0.512 | 92.1 | 0.521 | 89.7 | inactive |
| SLC29A3 | SID160743513 | 1.89 | 119 | 1.87 | 81.6 | inactive |
| SLC29A3 | SID160743515 | 0.862 | 99 | 0.454 | 98.2 | inactive |
| TUBA5P (tubulin alpha 5, pseudogene) | SID160734733 | 1.84 | 118 | 2.79 | 63.5 | inactive |
| TUBA5P (tubulin alpha 5, pseudogene) | SID160773661 | 0.0914 | 83.7 | 0.0745 | 91.7 | inactive |
| TUBA5P (tubulin alpha 5, pseudogene) | SID160773662 | 0.29 | 87.7 | 0.334 | 89.7 | inactive |
| PRKAR1B (protein kinase cAMP-dependent type I regulatory subunit beta) | SID160714916 | 0.448 | 90.8 | -0.0476 | 103 | inactive |
| PRKAR1B (protein kinase cAMP-dependent type I regulatory subunit beta) | SID160714917 | -0.428 | 73.4 | -0.796 | 101 | inactive |
| PRKAR1B (protein kinase cAMP-dependent type I regulatory subunit beta) | SID160714918 | 1.87 | 119 | 1.23 | 96.3 | inactive |
| RIMKLB (ribosomal modification protein rimK like family member B) | SID160746102 | 2.37 | 129 | 1.68 | 92.7 | inactive |
| RIMKLB (ribosomal modification protein rimK like family member B) | SID160746103 | 0.677 | 95.3 | -0.0686 | 108 | inactive |
| RIMKLB (ribosomal modification protein rimK like family member B) | SID160746104 | 0.619 | 94.2 | 0.777 | 85.8 | inactive |
| FAM24A (family with sequence similarity 24 member A) | SID160732368 | 3.68 | 155 | 2.77 | 83.5 | active |
| FAM24A (family with sequence similarity 24 member A) | SID160755658 | 1.55 | 113 | 1.43 | 86.4 | inactive |
| FAM24A (family with sequence similarity 24 member A) | SID160755659 | -0.123 | 79.4 | 0.0704 | 87.1 | inactive |
| TMEM218 (transmembrane protein 218) | SID160761364 | -1.37 | 54.7 | -1.34 | 87 | inactive |
| TMEM218 (transmembrane protein 218) | SID160761365 | -0.488 | 72.2 | -0.65 | 95.7 | inactive |
| TMEM218 (transmembrane protein 218) | SID160761366 | 0.202 | 85.9 | -0.221 | 102 | inactive |
| GARNL3 (GTPase activating Rap/RanGAP domain like 3) | SID160751965 | 0.302 | 87.9 | 0.0703 | 96.4 | inactive |
| GARNL3 (GTPase activating Rap/RanGAP domain like 3) | SID160751966 | -0.744 | 67.1 | -1.24 | 104 | inactive |
| GARNL3 (GTPase activating Rap/RanGAP domain like 3) | SID160751967 | -1.24 | 57.2 | -0.945 | 81.9 | inactive |
| ERMP1 (endoplasmic reticulum metallopeptidase 1) | SID160749844 | 1.13 | 104 | 0.616 | 99.1 | inactive |
| ERMP1 (endoplasmic reticulum metallopeptidase 1) | SID160749845 | 1.44 | 111 | 1.28 | 88.3 | inactive |
| ERMP1 (endoplasmic reticulum metallopeptidase 1) | SID160749846 | 1.17 | 105 | 0.813 | 94.8 | inactive |
| IRF7 (interferon regulatory factor 7) | SID160723886 | 0.655 | 94.9 | 0.624 | 90 | inactive |
| IRF7 (interferon regulatory factor 7) | SID160731146 | 0.0748 | 83.4 | -0.249 | 99.5 | inactive |
| IRF7 (interferon regulatory factor 7) | SID160775936 | 1.06 | 103 | 1.01 | 88.1 | inactive |
| DCPH1 (damage control phosphatase 1) | SID160734939 | 1.65 | 115 | 0.775 | 104 | inactive |
| DCPH1 (damage control phosphatase 1) | SID160749020 | 1.07 | 103 | 1.19 | 84.3 | inactive |
| DCPH1 (damage control phosphatase 1) | SID160749022 | 2.18 | 125 | 1.67 | 90.1 | inactive |
| KLHDC8B (kelch domain containing 8B) | SID160732656 | -1.04 | 61.1 | -0.082 | 69.8 | inactive |
| KLHDC8B (kelch domain containing 8B) | SID160760917 | 1.08 | 103 | 1.67 | 74.5 | inactive |
| KLHDC8B (kelch domain containing 8B) | SID160760920 | -0.127 | 79.4 | 0.038 | 87.8 | inactive |
| RALGPS1 (Ral GEF with PH domain and SH3 binding motif 1) | SID160722707 | -0.22 | 77.5 | -0.131 | 89.7 | inactive |
| RALGPS1 (Ral GEF with PH domain and SH3 binding motif 1) | SID160722708 | -0.0302 | 81.3 | -0.116 | 93.6 | inactive |
| RALGPS1 (Ral GEF with PH domain and SH3 binding motif 1) | SID160735242 | -0.756 | 66.8 | -0.289 | 80.6 | inactive |
| GNL2 (G protein nucleolar 2) | SID160739236 | -2.04 | 41.4 | -1.33 | 65.6 | inactive |
| GNL2 (G protein nucleolar 2) | SID160739238 | -1.3 | 56 | -0.829 | 77.8 | inactive |
| GNL2 (G protein nucleolar 2) | SID160739239 | -1.28 | 56.4 | -0.563 | 73 | inactive |
| MIDEAS (mitotic deacetylase associated SANT domain protein) | SID160754083 | 0.38 | 89.4 | -0.112 | 103 | inactive |
| MIDEAS (mitotic deacetylase associated SANT domain protein) | SID160754085 | 1.83 | 118 | 0.861 | 105 | inactive |
| MIDEAS (mitotic deacetylase associated SANT domain protein) | SID160754086 | 0.242 | 86.7 | 0.35 | 88.4 | inactive |
| CCDC160 (coiled-coil domain containing 160) | SID160764980 | -0.434 | 73.2 | -0.791 | 101 | inactive |
| CCDC160 (coiled-coil domain containing 160) | SID160764982 | 0.273 | 87.3 | 0.457 | 86.5 | inactive |
| CCDC160 (coiled-coil domain containing 160) | SID160764983 | -0.442 | 73.1 | -0.0856 | 83.5 | inactive |
| STUM (stum, mechanosensory transduction mediator homolog) | SID160725155 | -0.825 | 65.5 | -0.674 | 87.4 | inactive |
| STUM (stum, mechanosensory transduction mediator homolog) | SID160765386 | -0.109 | 79.7 | 0.629 | 75.5 | inactive |
| STUM (stum, mechanosensory transduction mediator homolog) | SID160765387 | 0.108 | 84 | -0.379 | 104 | inactive |
| ATP13A4 (ATPase 13A4) | SID160732015 | -2.02 | 41.6 | -1.94 | 77.5 | inactive |
| ATP13A4 (ATPase 13A4) | SID160751935 | -0.357 | 74.8 | -0.16 | 87.2 | inactive |
| ATP13A4 (ATPase 13A4) | SID160751936 | 0.53 | 92.4 | 1.24 | 74.4 | inactive |
| KIRREL3 (kirre like nephrin family adhesion molecule 3) | SID160752457 | -0.749 | 67 | -0.453 | 84.4 | inactive |
| KIRREL3 (kirre like nephrin family adhesion molecule 3) | SID160752458 | -0.134 | 79.2 | 0.151 | 85.1 | inactive |
| KIRREL3 (kirre like nephrin family adhesion molecule 3) | SID160752459 | -0.956 | 62.9 | -0.36 | 77.2 | inactive |
| CD19 (CD19 molecule) | SID160738593 | 0.583 | 93.5 | 0.318 | 96.1 | inactive |
| CD19 (CD19 molecule) | SID160738604 | -0.236 | 77.2 | -0.491 | 98.2 | inactive |
| CD19 (CD19 molecule) | SID160738613 | -1.34 | 55.3 | -0.778 | 75.8 | inactive |
| PLEKHN1 (pleckstrin homology domain containing N1) | SID160751666 | -0.138 | 79.1 | -0.701 | 106 | inactive |
| PLEKHN1 (pleckstrin homology domain containing N1) | SID160751667 | -0.104 | 79.8 | 0.15 | 85.8 | inactive |
| PLEKHN1 (pleckstrin homology domain containing N1) | SID160751668 | -1.14 | 59.1 | -0.773 | 81 | inactive |
| C2orf69 (chromosome 2 open reading frame 69) | SID160761186 | 1.16 | 105 | 1.31 | 82.9 | inactive |
| C2orf69 (chromosome 2 open reading frame 69) | SID160761187 | -0.471 | 72.5 | -0.0644 | 82.4 | inactive |
| C2orf69 (chromosome 2 open reading frame 69) | SID160761188 | 1.14 | 104 | 0.439 | 104 | inactive |
| DENND6B (DENN domain containing 6B) | SID160767612 | -0.292 | 76.1 | 0.042 | 84.1 | inactive |
| DENND6B (DENN domain containing 6B) | SID160767613 | -0.337 | 75.2 | -0.193 | 88.4 | inactive |
| DENND6B (DENN domain containing 6B) | SID160767614 | -1.33 | 55.4 | -0.44 | 69.5 | inactive |
| DYDC1 (DPY30 domain containing 1) | SID160732514 | 1.23 | 106 | 1.47 | 80.7 | inactive |
| DYDC1 (DPY30 domain containing 1) | SID160758010 | -1.25 | 57 | -1.12 | 85.5 | inactive |
| DYDC1 (DPY30 domain containing 1) | SID160758011 | 0.0812 | 83.5 | 0.255 | 87.2 | inactive |
| KCTD14 (potassium channel tetramerization domain containing 14) | SID160731764 | -0.342 | 75.1 | -0.277 | 90.2 | inactive |
| KCTD14 (potassium channel tetramerization domain containing 14) | SID160748367 | 0.069 | 83.3 | 1.42 | 64 | inactive |
| KCTD14 (potassium channel tetramerization domain containing 14) | SID160748368 | -0.948 | 63 | -1.04 | 92.5 | inactive |

Hits (from the list above):
| gene symbol | PubChem SID | total luciferase, z-score | total luciferase, % of control | luciferase per cell, z-score | viable cells, % of control | outcome |
| --- | --- | --- | --- | --- | --- | --- |
| FAM24A (family with sequence similarity 24 member A) | SID160732368 | 3.68 | 155 | 2.77 | 83.5 | active |
